# Test system: PANC1 and A375P cells
# Experiment: Subcellular localization by inherent fluorescence microscopy
# Assay type: cell-based
# Details: 6 hr, 3 μM, FIG. 2D
row,SMILES,subcellular localization (green/red fluorescence)
1,COc1ccc2nc3cc(Cl)ccc3c(NCCCCCCNCCCCCCNc3c4ccc(Cl)cc4nc4ccc(OC)cc34)c2c1 [DQ 660],strong green fluorescence in the nuclear compartment with little to no detectable red fluorescence
2,COc1ccc2nc3cc(Cl)ccc3c(NCCCCCCN(C)CCCCCCNc3c4ccc(Cl)cc4nc4ccc(OC)cc34)c2c1 [DQ 661],strong red fluorescence in the perinuclear compartment where lysosomes reside
3,COc1ccc2nc3cc(Cl)ccc3c(NCCCCCN(C)CCCCCNc3c4ccc(Cl)cc4nc4ccc(OC)cc34)c2c1 [DQ 551],strong red fluorescence in the perinuclear compartment where lysosomes reside
4,COc1ccc2nc3cc(Cl)ccc3c(NCCCCCNCCCCCNc3c4ccc(Cl)cc4nc4ccc(OC)cc34)c2c1 [DQ 550],strong green fluorescence in the nuclear compartment with little to no detectable red fluorescence
